The whole screen tested about 330,000 compounds, of which about 7,700 (2.3%) were called active. Inconclusive means that the source gave no clear call. Such entries were picked first, then a sample of the others. Calls come from the whole dose curve; as a rule, active = well fitted inhibition curve with a large enough effect; inconclusive = small, poorly fitted or top-dose-only effect, or effect the other way; inactive = flat fitted curve, though single readings scatter. Potencies beside an inconclusive call are fits to weak or partial responses and may not hold up.
Test: qHTS screen for small molecules that inhibit ELG1-dependent DNA repair in human embryonic kidney (HEK293T) cells expressing luciferase-tagged ELG1; note: nearly all actives have a fitted effect of over 55% in size
Settings: HEK293T ELG1-luciferase reporter, luminescence, 16 h, DNA damage induced by 5-fluorouridine; activity change, negative = inhibition: at 46.1 µM (top of the series)
In short: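 Reporter activity after DNA damage by 5-fluorouridine is monitored. Compound-treated cells incubate 16 hr at 37 °C, then ONE-Glo is added for 30 min before luminescence reading.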
% is set by controls: 0 for no effect and ±100 for the full control effect; potency is the fitted concentration of half-maximal effect.

Compound	Potency	activity change, negative = inhibition
CCOC(=O)c1c(C)[nH]c(C(=O)N/N=C/c2cccc(OC)c2)c1C	inconclusive: 20.6 µM [inhibitor, single point]	
O=C(c1ccccc1)C(CCC(CN1CCOCC1)C(=O)c1ccccc1)CN1CCOCC1 (stereo not drawn)	inconclusive: 29.1 µM [inhibitor, single point]	
COc1ccc(CNC(=O)C[C@H]2C[C@H](C(=O)N3CCCCC3)[C@@]3(C)c4[nH]c5cc(-c6ccco6)ccc5c4CCN3C2=O)cc1OC	active: 20.6 µM	
C=CCn1c(SCc2c(C)noc2C)nc2sc3c(c2c1=O)CCCCC3	inconclusive: 16.4 µM [inhibitor, partial curve, poor fit]	
CCN1CCN(CCCNC(=O)c2cc3c(s2)-c2ccccc2OC3)CC1	inconclusive: 16.4 µM [activator, partial curve]	
Cc1ccc(S(=O)(=O)N2CCN(CC(=O)Nc3ccc([N+](=O)[O-])cc3)CC2)cc1C	inconclusive: 5.8 µM [inhibitor, full curve]	
COC(=O)c1c(-c2ccc(Br)cc2)noc1N	inconclusive: 16.4 µM [activator, partial curve]	
CCOC(=O)c1[nH]c(C(=O)O)c(CCC(=O)OC)c1C	inconclusive: 0.92 µM [activator, partial curve, poor fit]	
O=C1CC(c2ccccc2)Cc2nc(N3CCc4ccccc4C3)ncc21 (stereo not drawn)		inactive: -12%
Cc1cccc(NC(=O)c2cc(NC(=O)C3CCCCC3C(=O)O)ccc2N2CCOCC2)c1 (stereo not drawn)	inconclusive: 11.6 µM [activator, partial curve]	
O=c1[nH]c(SCc2ccccc2Cl)nc2[nH]ncc12	inconclusive: 23.1 µM [activator, single point]	
COc1ccc(C2/C=C\CC(OCc3ccccc3)CC(=O)N2Cc2cccc(F)c2)cc1 (stereo not drawn)	active: 20.6 µM	
CSCCC(/C(O)=C(\C#N)c1nc2ccccc2[nH]1)N1C(=O)c2ccccc2C1=O (stereo not drawn)		inactive: -11.4%
CC(OC(=O)c1ccccc1)C(=O)NCCC1=CCCCC1 (stereo not drawn)		inactive: 5.38%
O=C(Nc1cccc(F)c1)Nc1ccc(Cl)cn1	inconclusive: 20.6 µM [activator, partial curve]	
O=C1CC(=C(c2ccccc2)c2ccccc2)C(=O)N1CCCCN1CCN(c2cccc(Cl)c2)CC1		inactive: -7.77%
O=C(NNC(=S)NC1CCCCC1)c1ccccc1O	inconclusive: 20.6 µM [inhibitor, single point]	
CNC(=S)NNc1nncc2ccccc12		inactive: -1.34%
Nc1ccc(S(=O)(=O)Nc2nccc(/C=C/c3cccc(Br)c3)n2)cc1	inconclusive: 23.1 µM [inhibitor, partial curve, poor fit]	
COc1ccc(-c2csc(Cc3nc(O)cs3)n2)cc1	inconclusive: 8.2 µM [activator, partial curve]	
Cc1ccc(S(=O)(=O)N2CCN(C(=O)c3cc4c(C)nn(-c5ccccc5)c4s3)CC2)cc1	active: 10.3 µM	
O=C(CCl)c1ccc(Cc2ncc(C(F)(F)F)cc2Cl)s1		inactive: 0.593%
COc1cccc(OCC(=O)NC2CCCCCC2)c1	inconclusive: 11.2 µM [activator, partial curve, poor fit]	

Compound	Potency	activity change, negative = inhibition
O=C(/C=C/c1ccc(F)cc1)Nc1nc2ccccc2[nH]1	inconclusive: 1.84 µM [activator, full curve]	
COc1ccc(CC(=O)N2N=C(C)CC2(O)c2cccnc2)cc1 (stereo not drawn)	inconclusive: 16.4 µM [activator, single point]	
CC(=O)Nc1ccc(NC(=O)/C(=C/c2ccco2)NC(=O)c2ccccc2)cc1		inactive: 2.35%
CCN=C(N/N=C/c1ccc([N+](=O)[O-])cc1)SC		inactive: 15.5%
O=C(Nc1cccc2ccccc12)c1ccc([N+](=O)[O-])o1	inconclusive: 25.9 µM [inhibitor, partial curve, poor fit]	
Cc1ccc(S(=O)(=O)N2CCCCC2)cc1NC(=O)CCOc1ccccc1		inactive: -7.89%
CCC(=O)c1ccc(OCc2ccc(C(=O)OC)cc2)cc1	inconclusive: 2.06 µM [activator, partial curve]	
S=C(Nc1ccc(Cl)cc1)NC1CC2CCCC(C1)N2C1CC1 (stereo not drawn)	inconclusive: 18.4 µM [inhibitor, single point]	
O=C(CCCn1nnnc1CN1CCOCC1)N1CCC(c2ccccc2F)C1 (stereo not drawn)	inconclusive: 0.231 µM [inhibitor, single point]	
COc1ccc(NC(=O)/C(C#N)=C\c2cc(OC)c(OCc3ccc(C(=O)O)cc3)cc2Br)cc1	inconclusive: 23.1 µM [activator, single point]	
Cc1ccc(C)c(S(=O)(=O)N2CCCC2CNC(=O)C(=O)NCCc2ccccc2)c1 (stereo not drawn)	inconclusive: 16.4 µM [inhibitor, partial curve, poor fit]	
CCn1c(-c2cc(Br)cc(OC)c2O)nc2cc(S(=O)(=O)N(C)C)ccc21	inconclusive: 25.9 µM [inhibitor, single point]	
Cn1nnnc1SCC(=O)Nc1cc(S(=O)(=O)N2CCCC2)ccc1Cl		inactive: 8.32%
COc1cc(/C=N/NC(=O)c2cc(C)oc2C)ccc1O		inactive: 5.22%
N/C(CSc1ccc(Cl)cc1)=N\NC(=O)c1ccncc1	inconclusive: 18.3 µM [inhibitor, partial curve]	
COc1cc(C(=O)Nc2cccc(-c3nc4cc(C)cc(C)c4o3)c2)cc(OC)c1OC	inconclusive: 0.651 µM [inhibitor, full curve]	
Cc1ccc(CN2C(=O)/C(=C\c3ccc(C(=O)NCc4cccnc4)cc3)Oc3ccccc32)cc1	inconclusive: 0.0052 µM [activator, full curve, poor fit]	
CCCCOC(=O)Nc1nnc(CC)s1	inconclusive: 3.66 µM [activator, single point]	
Clc1ccsc1-c1csc(-c2cccnc2)n1	inconclusive: 13 µM [activator, partial curve]	
Cc1c(CCC(=O)NCC(=O)NCC(=O)O)c(=O)oc2cc3oc4c(c3cc12)CCCC4		inactive: -0.448%
Cc1cc(C)cc(OCC(=O)OCC(=O)Nc2c(C)n(C)n(-c3ccccc3)c2=O)c1		inactive: 19.1%
CC(=O)Oc1ccc(C(=O)Nc2nccs2)cc1	inconclusive: 20.6 µM [activator, partial curve]	
CC1CCCCC12NC(=O)N(CC(=O)NCCc1ccc(S(N)(=O)=O)cc1)C2=O (stereo not drawn)		inactive: 11.8%

Compound	Potency	activity change, negative = inhibition
Cc1csc(=O)n1CC(=O)OCc1nnc(-c2ccc(Cl)cc2)o1	inconclusive: 9.2 µM [activator, single point]	
Cc1ccc2nc(SC(C)C(=O)Nc3cccc([N+](=O)[O-])c3)[nH]c2c1 (stereo not drawn)	inconclusive: 16.4 µM [inhibitor, single point]	
CCOc1ccc(N(C)Cc2cc(=O)oc3ccc(OCC)cc23)cc1		inactive: -2.92%
CCCCn1c(CCl)nc2cc(S(=O)(=O)N3CCOCC3)ccc21	inconclusive: 11.6 µM [inhibitor, single point]	
CC(C)=NNC(=O)c1c(O)c2ccccc2[nH]c1=O		inactive: -17.5%
CC(=C/c1ccccc1)/C=N/N1CCN(Cc2ccc(C)cc2)CC1	inconclusive: 29.1 µM [inhibitor, single point]	
Cc1nc2ccc(NC(=O)N(C)c3ccccc3)cc2s1	inconclusive: 20.6 µM [activator, partial curve]	
CN(c1ccccc1)S(=O)(=O)c1cccc(NC(=O)c2ccncc2)c1	inconclusive: 4.11 µM [inhibitor, partial curve, poor fit]	
Cc1nn2cc(-c3cccc(Cl)c3)cnc2c1Cl	inconclusive: 23.1 µM [activator, partial curve]	
O=C(NCC1CCCO1)c1cc(-c2ccc(F)cc2)no1 (stereo not drawn)	inconclusive: 16.4 µM [activator, single point]	
CN(C)c1ccc(-c2nc3cc(N)ccc3o2)cc1	inconclusive: 0.282 µM [activator, partial curve, poor fit]	
Brc1ccc2[nH]c3c(NCc4ccccn4)ncnc3c2c1	inconclusive: 20.6 µM [inhibitor, partial curve]	
COC(=O)c1ccc(CSc2nc3cc(Cl)ccc3s2)o1	inconclusive: 29.1 µM [activator, single point]	
COc1ccc(CC(=O)Nc2ccc(-c3nnc(-c4ccccc4)o3)cc2)cc1	inconclusive: 7.31 µM [activator, partial curve]	
C/C(=N/OCC(=O)NCCCCCCNC(=O)CO/N=C(/C)c1cccs1)c1cccs1	inconclusive: 29.1 µM [inhibitor, single point]	
CCN=C1S/C(=C/c2ccc(-c3ccc(F)cc3)o2)C(=O)N1CC		inactive: -2.02%
COc1ccc(NC(=O)Nc2cccc3c2O[C@H](CN(C)S(=O)(=O)c2cccs2)[C@@H](C)CN([C@H](C)CO)C3=O)cc1	inconclusive: 20.6 µM [inhibitor, single point]	
CC1CCN(C(=O)CSc2ccc(-c3ccc4c(c3)OCCO4)nn2)CC1	inconclusive: 20.6 µM [activator, partial curve, poor fit]	
Cc1cc(Br)ccc1NC(=O)CN(C)C(=O)c1cc([N+](=O)[O-])ccc1N1CCOCC1		inactive: -11.9%
CC(C)CNc1nc(Oc2ccc(=O)n(C)n2)nc(N2CCOCC2)n1	inconclusive: 14.6 µM [activator, partial curve]	
CC(C)(C)OC(=O)N1CCC(Cc2cc(-c3ccccc3)no2)(C(=O)O)CC1	inconclusive: 25.9 µM [activator, partial curve]	
COc1ccc(C(O)P(=O)(OCC(C)C)OCC(C)C)c(OC)c1 (stereo not drawn)		inactive: -3.26%

Single records (already shown):
`Cc1nn2cc(-c3cccc(Cl)c3)cnc2c1Cl` reads Potency: inconclusive: 23.1 µM [activator, partial curve]
`CCN=C1S/C(=C/c2ccc(-c3ccc(F)cc3)o2)C(=O)N1CC` reads activity change, negative = inhibition: inactive: -2.02%
`CN(C)c1ccc(-c2nc3cc(N)ccc3o2)cc1` reads Potency: inconclusive: 0.282 µM [activator, partial curve, poor fit]
`CN(c1ccccc1)S(=O)(=O)c1cccc(NC(=O)c2ccncc2)c1` reads Potency: inconclusive: 4.11 µM [inhibitor, partial curve, poor fit]
